Non-standard residues stand in square brackets, D forms with d. No end group written: not given here. *: point of attachment. 1Nal = N[C@@H](Cc1cccc2ccccc12)C(=O)O; 2Nal = N[C@@H](Cc1ccc2ccccc2c1)C(=O)O; Cbz = O=C(OCc1ccccc1)*; βAla = NCCC(=O)O
test: general procedure: Fmoc solid-phase peptide synthesis; Sieber amide resin; DIPCDI/HOAt; conditions: whole synthesis, scale 0.01 mmol

Substance | isolated mass [mg]
NpipAc-Tyr-Nal(2)-Leu-Phe-Arg-Ala-Arg-Asn-NH2 | 9.3
Cbz-AY[2Nal]LFRPRN-NH2 | 10.8
[βAla]Y[1Nal]LFRPRN-NH2 | 6.5
NpipAc-Tyr-Nal(2)-Leu-Phe-Arg-Pro-Arg-Asn-NH2 | 7.9

same assay, conditions: whole synthesis, scale 0.02 mmol

Substance | isolated mass [mg]
Pic(4)-Tyr-Nal(2)-Leu-Phe-Arg-NMeAla-Arg-Asn-NH2 | 19.0
Acp-Tyr-Nal(2)-Leu-Phe-Arg-NMeAla-Arg-Asn-NH2 | 14.2
